# Data source: PubChem BioAssay AID1259264 (Sanger Institute, 2017)
# Screen: 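Kinases needed for CL40 growth and those that boost anti-cancer drug killing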 (primary screen)
# Cells: CL40 human colorectal cancer cells
# Knock-down reagent: siRNA pool against human genes
# Conditions: DMSO, or an anchor drug: BYL719 at 1 µM, cetuximab at 5 µg/ml, or trametinib at 10 nM
# Measured: 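Viability as a fraction of non-targeting pool control (replicates averaged), control-based robust z-score, plus averaged synergy for each drug: BYL719 1 µM, cetuximab 5 µg/ml, trametinib 10 nM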
# Scale: robust z-score, siRNA alone and viability, siRNA alone: higher = more viable cells; synergy score with BYL719: higher = stronger combined killing with BYL719; synergy score with cetuximab: higher = stronger combined killing with cetuximab; synergy score with trametinib: higher = stronger combined killing with trametinib
# Call rule: 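a gene counts as essential when knock-down without drug gives a robust z-score below -3, meaning fewer cells; synergy scores play no part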
# Meaning of the calls: active = essential (lowers viability alone); inactive = not essential
# Here is an unselected part of 794 reagents. Over the whole deposit, 15 (1.9%) got an active call. 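Calls rest on knock-down alone at z-score below -3; synergy scores with the three drugs do not decide them.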 Unmarked entries are inactive. Viability is capped at 1. Not given: the amount of reagent, the time to read-out.
target,"robust z-score, siRNA alone","viability, siRNA alone (fraction of control)",synergy score with BYL719,synergy score with cetuximab,synergy score with trametinib
STK4 (serine/threonine kinase 4),0.539,1,-0.0391,0.0129,0.0738
MAPK14 (mitogen-activated protein kinase 14),0.234,0.978,-0.038,-0.0195,-0.0018
CDK5R2 (cyclin dependent kinase 5 regulatory subunit 2),0.243,0.979,-0.109,-0.0382,-0.00269
FLT3 (fms related receptor tyrosine kinase 3),-0.619,0.917,-0.0107,-0.099,0.0856
FER (FER tyrosine kinase),0.276,0.981,-0.0413,-0.0359,0.0229
CSNK1G2 (casein kinase 1 gamma 2),0.539,1,-0.156,-0.0174,0.027
CLK2 (CDC like kinase 2),0.539,1,-0.0801,0.0118,-0.0038
HIPK3 (homeodomain interacting protein kinase 3),-0.358,0.936,-0.0313,0.0307,0.167
NUCKS1,0.539,1,-0.0434,-0.0174,0.0762
DAPK3 (death associated protein kinase 3),0.216,0.977,-0.0494,-0.0402,0.0431
PHKG1 (phosphorylase kinase catalytic subunit gamma 1),-0.13,0.952,-0.114,-0.0646,0.132
PIK3CB,-0.712,0.91,-0.151,-0.0391,0.0685
CAMK2G (calcium/calmodulin dependent protein kinase II gamma),0.539,1,-0.0257,-0.0174,0.0594
MAK (male germ cell associated kinase),0.539,1,-0.148,-0.0174,-0.00473
DDR1 (discoidin domain receptor tyrosine kinase 1),0.539,1,-0.156,-0.0174,0.0703
ADGRL2 (adhesion G protein-coupled receptor L2),-0.539,0.923,-0.149,-0.0818,0.0754
FCSK (fucose kinase),-0.482,0.927,-0.179,-0.0894,-0.00205
BCOR (BCL6 corepressor),0.398,0.99,-0.0478,-0.0274,0.13
SRMS,-0.599,0.918,0.0287,-0.0976,0.115
MAP3K15 (mitogen-activated protein kinase kinase kinase 15),0.539,1,-0.142,0.0204,0.00212
"PIM3 (Pim-3 proto-oncogene, serine/threonine kinase)",0.539,1,-0.103,-0.0174,0.113
TRPM7,0.539,1,-0.0667,-0.00724,0.0655
HSPB8 (heat shock protein family B (small) member 8),0.539,1,-0.109,0.0632,0.0344
CDKL3 (cyclin dependent kinase like 3),0.539,1,-0.156,-0.0174,0.0768
FGFR3 (fibroblast growth factor receptor 3),-0.702,0.911,-0.182,-0.0757,0.0463
MAP3K6 (mitogen-activated protein kinase kinase kinase 6),0.539,1,0.0213,-0.0174,0.0112
EPHB6 (EPH receptor B6),0.539,1,-0.00145,-0.0174,0.147
FLT4 (fms related receptor tyrosine kinase 4),0.539,1,-0.0544,-0.0174,0.0853
ADCK1 (aarF domain containing kinase 1),-0.524,0.924,0.0645,-0.0412,0.128
PKN3 (protein kinase N3),0.539,1,-0.0741,0.015,0.0239
GNE,0.539,1,-0.101,-0.0174,0.0727
"RELA (RELA proto-oncogene, NF-kB subunit)",0.539,1,-0.156,0.0914,0.112
CKB (creatine kinase B),0.539,1,-0.156,-0.0174,0.1
TESK1 (testis associated actin remodelling kinase 1),0.539,1,-0.0346,-0.0174,0.0593
"FES (FES proto-oncogene, tyrosine kinase)",0.0333,0.964,-0.141,-0.0421,0.0817
EPHA6 (EPH receptor A6),0.148,0.972,-0.0283,-0.0449,0.135
IKBKB (inhibitor of nuclear factor kappa B kinase subunit beta),0.539,1,-0.0896,-0.0174,0.0326
BUB1 (BUB1 mitotic checkpoint serine/threonine kinase),-0.663,0.914,-0.0553,-0.00938,0.0376
LATS1 (large tumor suppressor kinase 1),-0.177,0.949,-0.0522,-0.0323,-0.0403
SCYL3 (SCY1 like pseudokinase 3),0.324,0.985,0.0238,0.0737,0.0734
PKIB (cAMP-dependent protein kinase inhibitor beta),0.539,1,-0.0409,-0.00411,-0.00541
BRD3 (bromodomain containing 3),0.539,1,-0.156,-0.0174,0.0593
PIP5K1B (phosphatidylinositol-4-phosphate 5-kinase type 1 beta),0.539,1,-0.0334,0.0067,0.052
TNNI3K (TNNI3 interacting kinase),0.346,0.986,-0.00845,-0.031,0.0503
ITSN1 (intersectin 1),-0.117,0.953,0.0652,0.0412,0.105
TK2 (thymidine kinase 2),0.539,1,-0.0297,-0.0174,0.102
CAMK2D (calcium/calmodulin dependent protein kinase II delta),0.539,1,-0.144,-0.0174,-0.0265
NME1 (NME/NM23 nucleoside diphosphate kinase 1),0.539,1,-0.0948,-0.0174,0.06
PIK3R3 (phosphoinositide-3-kinase regulatory subunit 3),0.539,1,-0.12,-0.0174,-0.0169
IP6K2 (inositol hexakisphosphate kinase 2),0.539,1,-0.111,-0.0174,0.0491
